These results are taken from PubChem BioAssay AID493014 (National Center for Advancing Translational Sciences (NCATS), 2011).

The assay is described as follows: qHTS Assay to Find Inhibitors of Chronic Active B-Cell Receptor Signaling. The settings on record: ABC-DLBCL IkBa-CBG/CBR reporter, luminescence ratio (green luciferase fused to IkBa over red control in TMD8 lymphoma cells), 4 h. Put shortly: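 Concentration-response series (up to 46 uM) were applied to TMD8 dual-reporter cells for 4 h at 37C with doxycycline. Green/red ratio, after filter-overlap correction, defined %Activity; red signal alone was normalised to basal cells and zero luminescence.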
(In general: qHTS replaces the single test concentration by a dilution series.)

[1] abbreviates: measured here: CBR red luminescence, cell number.
The mark [2] stands for this setting: measured here: IkBa-CBG green luminescence.

SMILES strings stand for the structures. The list shows a part of the results. Further columns of the screen follow, without active or inactive calls. Compounds called inactive in the main read-out are mostly missing here. The note in brackets gives the kind of curve behind each potency; many fits are weak.

One may read the AC50 as the concentration giving half of the maximal activity seen. In the case of `CCn1cc(Cl)c(C(=O)Nc2ccc3c(c2)OCCO3)n1`, the AC50 under setting [1] was 20 µM [falling, single point].
Consider `CCCS(=O)(=O)NCc1cn2c(C)csc2n1`, for which the AC50 under setting [1] was 1.3 µM [falling, full curve, poor fit].
In the case of `CCOC(=O)C1CCC(CN(Cc2ccc(OC)cc2)S(=O)(=O)c2ccc(C)cc2)CC1` (stereo not drawn), under setting [1], the AC50 was 12.6 µM [rising, single point].
Take `O=C(Nc1cc(Cl)cc(Cl)c1)c1ccc(F)c(S(=O)(=O)N2CCCC2)c1`: the AC50 under setting [1] was 6.31 µM [falling, partial curve].
Same read-out and setting: for `O=C(Nc1cccc(C(F)(F)F)c1)c1cc2c(=O)c3ccccc3oc2nc1C(F)(F)F` the value was 20 µM [rising, partial curve, poor fit].
Consider `Cn1c(CNC(=O)c2ccccc2F)nnc1SCC(=O)c1ccccc1`, for which, under setting [1], the AC50 was 20 µM [falling, partial curve, poor fit].
In the case of `Cc1ccccc1-n1nc(C(=O)O)c(C)c(C#N)c1=O`, under setting [1], the AC50 is 2 µM [rising, partial curve, poor fit].
As to `CN(C)S(=O)(=O)c1cccc(NC(=O)COc2cccc3ccccc23)c1`, the AC50 under setting [1] is 29.1 µM [falling, single point].
Turning to `Cc1cccc(NC(=O)CCCc2ccccc2)c1C`, the AC50 under setting [1] was 20 µM [falling, partial curve, poor fit].
Still for that read-out and setting: for `Clc1cccc(Cl)c1NC1=NCCC1` the value was 23.1 µM [rising, single point].
In the case of `Cc1nc(N)sc1N=Nc1ccccc1C(F)(F)F`, the AC50 under setting [2] was 20 µM [falling, partial curve, poor fit].
For the molecule `COc1ccc(CNC(=O)C(c2ccco2)N(C(=O)Cc2cccs2)c2cccnc2)cc1` (stereo not drawn), the AC50 was 35.5 µM [falling, single point] under setting [1] and 35.5 µM [rising, partial curve, poor fit] under setting [2].
For `Cn1nc([N+](=O)[O-])nc1S(C)(=O)=O`, the AC50 under setting [1] was 15.8 µM [falling, single point].
For the molecule `COc1cc(/C=N/NC(=O)c2ccncc2)ccc1OC(=O)c1cccc(F)c1`, the AC50 under setting [1] was 17.8 µM [rising, single point].
Regarding `CC1CCc2c(sc(NC(=O)/C=C/c3cccs3)c2C(=O)O)C1` (stereo not drawn), the half-maximal activity concentration (AC50) under setting [1] is 3.16 µM [falling, full curve].
On the same count and under the same terms, for `O=C(c1ccc(S(=O)(=O)NCc2ccco2)cc1)N1CCN(c2ccc(F)cc2)CC1` the value was 29.1 µM [rising, partial curve, poor fit]; for `O=C(O)c1nnn(-c2ccc([N+](=O)[O-])cc2)c1-c1ccccc1`, 1.26 µM [rising, partial curve]; for `CC(=O)Nc1nc(C)c(CCCOc2ccc([N+](=O)[O-])cc2)c(=O)[nH]1`, 25.1 µM [rising, single point].
As to `Cc1cc(O)ccc1Nc1nc(-c2sc(N)nc2C)cs1`, the AC50 under setting [1] was 14.6 µM [falling, partial curve].
With `COc1ccccc1NC(=O)c1cc(-c2cc(OC)c(OC)c(OC)c2)nc2ccccc12`, the AC50 under setting [1] was 4.47 µM [falling, partial curve, poor fit].
For the molecule `CCC1SC2=NC(C)=C(C(=O)OC)C(c3ccc(C)cc3)N2C1=O` (stereo not drawn), under setting [1], the AC50 was 2.91 µM [rising, single point].
As for `Cc1ccccc1-c1ncc(CN2CCN(C3CCCC3)C(CCO)C2)cn1` (stereo not drawn), under setting [1], the AC50 is 20 µM [rising, partial curve, poor fit].
As for `Cc1cc(NC(=O)CSc2n[nH]c(-c3ccc(Cl)cc3Cl)n2)no1`, under setting [1], the AC50 is 29.1 µM [falling, single point].
Consider `O=C(Nc1ccc2[nH]ncc2c1)c1ccc(F)cc1`, for which the AC50 under setting [1] was 28.2 µM [falling, single point].
As for `O=C(Nc1cccc(CCc2ccccn2)c1)c1ccc(Cl)cc1`, the AC50 under setting [1] is 11.2 µM [falling, partial curve, poor fit].
As to `CCOc1ccccc1OCCCC(=O)N1CCN(S(=O)(=O)c2ccc(C)cc2C)CC1`, the AC50 under setting [1] was 23.1 µM [rising, partial curve, poor fit].
Consider `Cc1ccccc1NC(=O)c1cc2ccccn2n1`, for which, under setting [1], the AC50 was 17.8 µM [falling, partial curve, poor fit].
Consider `N/C(=N\OC(=O)CCc1ccccc1)c1cccnc1`, for which the AC50 under setting [1] was 11.2 µM [falling, single point].
Same read-out and setting: for `Cc1ccc(C)c(S(=O)(=O)N2CCCN(C)CC2)c1` the value was 6.31 µM [falling, partial curve, poor fit]; for `CCCc1cc(=O)n2[nH]c(C)nc2n1`, 0.13 µM [falling, full curve, poor fit].
Still for that read-out and setting: for `CSC1=NCCN1C(=O)c1c(F)cccc1Cl` the value was 0.146 µM [rising, full curve, poor fit]; for `Cc1ccc(S(=O)(=O)/N=C(/Nc2ccc([N+](=O)[O-])cc2[N+](=O)[O-])c2ccccc2)cc1`, 16.4 µM [rising, single point].
On the same count and under the same terms, for `CCCCn1c(=O)[nH]c(=O)c2c1nc(-c1ccccc1F)n2Cc1ccccc1OC` the value was 22.4 µM [falling, single point].
Regarding `CCc1nnc(NC(=O)c2cc3ccccc3oc2=O)s1`, under setting [1], the AC50 was 0.92 µM [rising, full curve, poor fit].
Regarding `CCOC(=O)c1ccc(NC(=O)c2ccc3c(c2)OCO3)cc1`, the AC50 under setting [1] is 5.17 µM [falling, partial curve, poor fit].
Regarding `CCOc1ccccc1C1C(C#N)=C(N)Oc2n[nH]c(CC)c21` (stereo not drawn), the AC50 under setting [1] is 3.55 µM [falling, partial curve].
For `Cc1cc([N+](=O)[O-])nn1CC(=O)Nc1ccc(F)cc1`, the AC50 under setting [1] was 14.1 µM [falling, single point].
As to `Cn1ccnc1Sc1ccccc1[N+](=O)[O-]`, the AC50 under setting [1] is 35.5 µM [falling, single point].
Consider `O=C(CSc1nc2ccccc2c(=O)n1NC(=O)c1ccccc1)c1ccccc1`, for which the AC50 under setting [1] was 14.1 µM [falling, single point].
For the molecule `O=C(CSC(=S)N1CCCCC1)c1c(F)cccc1F`, the AC50 runs as follows: under setting [1], 20 µM [falling, partial curve]; under setting [2], 35.5 µM [falling, single point].
As for `CCCCC(=O)Nc1cccc(NC(=O)c2ccc(Br)cc2)c1`, the AC50 under setting [1] was 3.16 µM [falling, partial curve, poor fit].
